These results are taken from PubChem BioAssay AID248 (DTP/NCI, 2004).

The assay concerns L1210 leukemia ip in BDF1 mice, survival T/C. The assay can be described thus: NCI In Vivo Anticancer Drug Screen. Data for tumor model L1210 Leukemia (intraperitoneal) in B6D2F1 (BDF1) mice. The settings on record: higher T/C = longer survival.
Where [1] appears, read: T/C endpoint: mean survival time, dose: 400.0 mg/kg/injection, schedule: Q01DX001 (ip), vehicle: Klucel (hydroxypropylcellulose) (HPC).
[2] abbreviates: T/C endpoint: mean survival time, dose: 400.0 mg/kg/injection, schedule: Q01DX001 (ip), vehicle: saline.
The mark [3] stands for this setting: T/C endpoint: mean survival time, dose: 400.0 mg/kg/injection, schedule: Q04DX003 (ip), vehicle: Klucel (hydroxypropylcellulose) (HPC).
The mark [4] stands for this setting: T/C endpoint: mean survival time, dose: 100.0 mg/kg/injection, schedule: Q04DX003 (ip), vehicle: saline with Tween-80.

The list does not hold the whole screen: it is rich in T/C values a quarter to a half above the control, in often repeated tests (any T/C) and in doses without a T/C. Other doses and runs of a compound stand elsewhere. T/C is the treated group as % of the vehicle group. Some doses have a count of surviving animals in place of a T/C: the source holds a T/C of zero for them, seemingly a mark for toxic or unscored doses. Some doses without a T/C left all or most animals alive at the check, yet need not have been tolerated: survival well below the control is almost never listed, so the zero probably covers shortened survival too. Survivors were counted at the toxicity check, usually on the fifth day, unless a day is given; later deaths do not show. Schedules are NCI's codes, read here as Q, the interval in days (D) or hours (H), X, the number of doses. Some schedules carry Z or #; the key to these is not given. For survival time, the PubChem record calls one and a half times the control and up active, and a quarter to a half above the control has no call in these data; cut-offs in other NCI protocols can differ. Some T/C values are followed by the survivors on the day toxicity was checked, most often the fifth; without a count, all were alive then. Some entries hold several experiments; the values are given in rising order. Counts like (3×) count equal records among those shown.

`CC(=O)c1ccc(N=C(N)N=C(N)N)cc1`: the survivor count (T/C endpoint: mean survival time, dose: 300.0 mg/kg/injection, schedule: Q01DX001 (ip), vehicle: carboxymethylcellulose (CMC)) is listed as 1 of 6.

For `O=C1Nc2ccc(Br)cc2C1(O)Cc1cccc([N+](=O)[O-])c1` (configuration not stated), under “T/C endpoint: mean survival time, dose: 400.0 mg/kg/injection, schedule: Q04DX002 (ip), vehicle: saline with Tween-80”, the survivor count was 3 of 3.

With `O=S(=O)(O)Sc1ncnc2nc[nH]c12`, the survivor count is reported as 1 of 6 (T/C endpoint: mean survival time, dose: 500.0 mg/kg/injection, schedule: Q01DX001 (ip), vehicle: water); 0 of 6 (T/C endpoint: mean survival time, dose: 500.0 mg/kg/injection, schedule: Q01DX009 (ip), vehicle: water); 2 of 6 (T/C endpoint: mean survival time, dose: 500.0 mg/kg/injection, schedule: Q04DX003 (ip), vehicle: water); 2 of 6 (T/C endpoint: mean survival time, dose: 1000.0 mg/kg/injection, schedule: Q01DX001 (ip), vehicle: water); 0 of 6 (T/C endpoint: mean survival time, dose: 1000.0 mg/kg/injection, schedule: Q04DX003 (ip), vehicle: water); 0 of 6 (T/C endpoint: mean survival time, dose: 2000.0 mg/kg/injection, schedule: Q01DX001 (ip), vehicle: water).

For the compound `O=C(O)C1CC(n2cnc3c(=O)[nH]cnc32)CN1` (configuration not stated), the T/C (T/C endpoint: mean survival time, dose: 200.0 mg/kg/injection, schedule: Q04DX002 (ip), vehicle: saline with Tween-80) is 125 % of control.

`Cc1c2c(nn1Cc1ccccc1)C(=O)C=C(Nc1ccccc1)C2=O`: under setting [1], the T/C was 128 % of control and the survivor count is 0 of 6.

As to `CNN=C(C)C`, the survivor count was 0 of 6 (T/C endpoint: mean survival time, dose: 50.0 mg/kg/injection, schedule: Q01DX009 (ip), vehicle: saline); 0 of 6 (T/C endpoint: mean survival time, dose: 100.0 mg/kg/injection, schedule: Q01DX001 (ip), vehicle: saline); 0 of 6 (T/C endpoint: mean survival time, dose: 200.0 mg/kg/injection, schedule: Q01DX001 (ip), vehicle: saline); 0 of 6 under setting [2].

Regarding `COc1cc2c(c(OC)c1OC)-c1ccc(SC)c(=O)cc1C(N=Cc1ccccc1)CC2` (configuration not stated), the survivor count (T/C endpoint: mean survival time, dose: 400.0 mg/kg/injection, schedule: Q04DX003 (ip), vehicle: saline with Tween-80) is recorded as 0 of 6.

`C=CC[N+](C)(C)C`: the survivor count is on record as 0 of 6 (T/C endpoint: mean survival time, dose: 150.0 mg/kg/injection, schedule: Q01DX001 (ip), vehicle: saline) and 0 of 6 (T/C endpoint: mean survival time, dose: 300.0 mg/kg/injection, schedule: Q01DX001 (ip), vehicle: saline).

As for `Cc1ccc(S(=O)(=O)N(Cl)Cl)cc1`, the survivor count is recorded as 6 of 6 (T/C endpoint: mean survival time, dose: 12.5 mg/kg/injection, schedule: Q01DX009 (ip), vehicle: Klucel (hydroxypropylcellulose) (HPC)); 1 of 6 (T/C endpoint: mean survival time, dose: 50.0 mg/kg/injection, schedule: Q04DX003 (ip), vehicle: Klucel (hydroxypropylcellulose) (HPC)); 0 of 6 (T/C endpoint: mean survival time, dose: 100.0 mg/kg/injection, schedule: Q04DX003 (ip), vehicle: Klucel (hydroxypropylcellulose) (HPC)); 0 of 6 (T/C endpoint: mean survival time, dose: 200.0 mg/kg/injection, schedule: Q04DX003 (ip), vehicle: Klucel (hydroxypropylcellulose) (HPC)); 2 of 6 under setting [3].

For `O=C1OCCN1C(=O)c1ccc(Cl)c(Cl)c1`, the survivor count (T/C endpoint: mean survival time, dose: 200.0 mg/kg/injection, schedule: Q01DX009 (ip), vehicle: Klucel (hydroxypropylcellulose) (HPC)) is on record as 6 of 6.

Consider `CCOC(=O)CCC(NC(=O)c1cc(Cl)c(N(CC)Cc2cnc3nc(N)nc(N)c3n2)c(Cl)c1)C(=O)OCC` (configuration not stated), for which the T/C (T/C endpoint: mean survival time, dose: 50.0 mg/kg/injection, schedule: Q01DX009 (ip), vehicle: Klucel (hydroxypropylcellulose) (HPC)) was 137 % of control. The survivor count (T/C endpoint: mean survival time, dose: 100.0 mg/kg/injection, schedule: Q01DX009 (ip), vehicle: Klucel (hydroxypropylcellulose) (HPC)) is 3 of 3.

For `N=C(N)N=Nc1c(O)[nH]c(=O)[nH]c1=O`, the survivor count was 6 of 6 (T/C endpoint: mean survival time, dose: 240.0 mg/kg/injection, schedule: Q01DX Z (ip), vehicle: carboxymethylcellulose (CMC)) and 0 of 6 (T/C endpoint: mean survival time, dose: 480.0 mg/kg/injection, schedule: Q01DX Z (ip), vehicle: carboxymethylcellulose (CMC)).

For the compound `COC1OC(CO)C(O)C1n1cnc2c(SC)ncnc21` (configuration not stated), the survivor count (T/C endpoint: mean survival time, dose: 400.0 mg/kg/injection, schedule: Q04DX002 (ip), vehicle: saline) is 0 of 3.

Consider `CCc1ccc(CCSCCc2ccc(CC)c[n+]2[O-])[n+]([O-])c1`, for which, under setting [2], the survivor count is 1 of 6.

On to `Cc1ccc(S(=O)(=O)Nc2ccccc2C(=O)c2ccc(C)c(C)c2)cc1`, for which the survivor count reads like this: (T/C endpoint: mean survival time, dose: 200.0 mg/kg/injection, schedule: Q01DX001 (ip), vehicle: carboxymethylcellulose (CMC)) 2 of 4; (T/C endpoint: mean survival time, dose: 400.0 mg/kg/injection, schedule: Q01DX001 (ip), vehicle: carboxymethylcellulose (CMC)) 0 of 4.

Turning to `CS(=O)(=O)OCCCCOS(C)(=O)=O`, the T/C was 93, 95, 115 (2×), 133 % of control (T/C endpoint: mean survival time, dose: 14.2 mg/kg/injection, schedule: Q02DX010 (ip), vehicle: carboxymethylcellulose (CMC)); 96, 102, 103, 106, 110 % of control (T/C endpoint: mean survival time, dose: 22.1 mg/kg/injection, schedule: Q02DX010 (ip), vehicle: carboxymethylcellulose (CMC)); 96, 101, 102 (2×), 103, 107 % of control (2×) (T/C endpoint: mean survival time, dose: 33.0 mg/kg/injection, schedule: Q02DX010 (ip), vehicle: carboxymethylcellulose (CMC)); 76, 105, 106, 109 % of control (2×) (T/C endpoint: mean survival time, dose: 49.5 mg/kg/injection, schedule: Q02DX010 (ip), vehicle: carboxymethylcellulose (CMC)); 76, 77 [4 of 5 alive], 85, 102, 117 % of control (T/C endpoint: mean survival time, dose: 74.25 mg/kg/injection, schedule: Q02DX010 (ip), vehicle: carboxymethylcellulose (CMC)). Moreover, the survivor count is, setting by setting: (T/C endpoint: mean survival time, dose: 25.0 mg/kg/injection, schedule: Q01DX010 (ip), vehicle: saline) 6 of 6; (T/C endpoint: mean survival time, dose: 50.0 mg/kg/injection, schedule: Q01DX Z (ip), vehicle: carboxymethylcellulose (CMC)) 0 of 6; (T/C endpoint: mean survival time, dose: 80.0 mg/kg/injection, schedule: Q01DX Z (ip), vehicle: carboxymethylcellulose (CMC)) 6 of 10; (T/C endpoint: mean survival time, dose: 240.0 mg/kg/injection, schedule: Q01DX001 (ip), vehicle: carboxymethylcellulose (CMC)) 1 of 6; (T/C endpoint: mean survival time, dose: 320.0 mg/kg/injection, schedule: Q01DX Z (oral), vehicle: saline) 1 of 6; (T/C endpoint: mean survival time, dose: 480.0 mg/kg/injection, schedule: Q01DX001 (ip), vehicle: carboxymethylcellulose (CMC)) 0 of 6. In addition, the survivor count is listed as 0 of 6 (T/C endpoint: mean survival time, dose: 640.0 mg/kg/injection, schedule: Q01DX Z (oral), vehicle: saline) and 4 of 6 (T/C endpoint: median survival time, dose: 100.0 mg/kg/injection, schedule: Q01DX009 (ip), vehicle: saline).

Consider `O=C(/C=N\O)c1ccncc1`, for which the survivor count (T/C endpoint: mean survival time, dose: 400.0 mg/kg/injection, schedule: Q01DX009 (ip), vehicle: Klucel (hydroxypropylcellulose) (HPC)) is recorded as 0 of 6.

With `CC(=O)OC1CC2CC1C1C=CCC21` (configuration not stated), the survivor count was 4 of 6 (T/C endpoint: mean survival time, dose: 200.0 mg/kg/injection, schedule: Q01DX009 (ip), vehicle: saline with Tween-80) and 2 of 6 (T/C endpoint: mean survival time, dose: 400.0 mg/kg/injection, schedule: Q04DX003 (ip), vehicle: saline sonified).

`O=C(O)c1cccc(F)c1C(=O)c1ccc2ccccc2c1`: the survivor count under setting [3] is 2 of 6.

Consider `CN(C)C(=S)N1CC2C3CCC(O3)C2C1` (configuration not stated), for which, under setting [3], the survivor count is 0 of 6.

In the case of `C/C(=N\N=C(N)N)c1cccc(NC(=S)Nc2cccc(/C(C)=N/N=C(N)N)c2)c1`, the survivor count (T/C endpoint: mean survival time, dose: 40.0 mg/kg/injection, schedule: Q01DX005 (ip), vehicle: saline with Tween-80) is 2 of 6; the survivor count (T/C endpoint: mean survival time, dose: 80.0 mg/kg/injection, schedule: Q01DX005 (ip), vehicle: saline with Tween-80) is recorded as 0 of 6; the survivor count (T/C endpoint: mean survival time, dose: 160.0 mg/kg/injection, schedule: Q01DX005 (ip), vehicle: saline with Tween-80) was 0 of 6; the survivor count (T/C endpoint: mean survival time, dose: 320.0 mg/kg/injection, schedule: Q01DX005 (ip), vehicle: saline with Tween-80) is 0 of 6.

In the case of `O=c1n(CCCl)c(=O)n(CCCl)c(=O)n1CCCl`, under setting [4], the survivor count is 6 of 6.

Turning to `CCCCCCCCCCCCN1CCSCC1`, the T/C under setting [4] was 90, 97, 98 [5 of 6 alive], 126 % of control.

As to `c1ccc2c[n+](C[n+]3ccc4ccccc4c3)ccc2c1`, the survivor count (T/C endpoint: mean survival time, dose: 400.0 mg/kg/injection, schedule: Q04DX003 (ip), vehicle: saline) is recorded as 1 of 6.
